According to patent publication US11339419B2, “Scavenger protein(s) for improved preservation of analyte detection sensor(s) and method(s) of use thereof” (Siemens Healthcare Diagnostics Inc., priority 2017, dated 2022):
“And” between values parts separate entries of the source, which are not always exact repeats. Equal values may be shown once. The source gives many values for each of these; only a part stands here.

Columns and labels:
Format in all cases: biochemical
creatininase (Toyobo) [1] = experiment: Toyobo Creatininase Enzyme Absorbance with BSA and Proclin 300; settings: no Proclin 300
Source text: Absorbance measurements of the creatininase enzyme(s) were taken via spectrophotometer for each aqueous solution (represented as columns 1-5 in Tables 5-8—column 6 is a blank), the absorbance being directly proportional to the enzyme activity being measured-which for Tables 5-8 is creatininase enzyme activity. Accordingly, the higher the absorbance measurement, the higher the enzyme activity of creatininase. […] In addition, the mean values, standard deviations, and coefficients of variation are all presented for the enzyme activity/absorbance of each aqueous solution. All measurements were taken at 37° C.

creatininase (Toyobo) [2] = experiment: Toyobo Creatininase Enzyme Absorbance with BSA and MIT
[3] = system: creatininase (BBI Solutions); experiment: BBI Solutions Creatininase Enzyme Absorbance with BSA and MIT

bovine serum albumin [BSA]
Absorbance, solutions 7-11 (creatininase (Toyobo) [1]; Day 0, BSA 5 mg/mL only, listed as of 0.7% Proclin 300): 0.71 and 0.679 and 0.724 and 0.734
Absorbance, solutions 7-11 (creatininase (Toyobo) [1]; Day 0, BSA 5 mg/mL only, listed as of 1.4% Proclin 300): 0.571
Absorbance, solutions 7-11 (creatininase (Toyobo) [1]; Day 0, BSA 25 mg/mL only, listed as of 0.7% Proclin 300): 0.49 and 0.506 and 0.514 and 0.499
Absorbance, solutions 7-11 (creatininase (Toyobo) [1]; Day 0, BSA 25 mg/mL only, listed as of 1.4% Proclin 300): 0.529
Absorbance, solutions 7-11 (creatininase (Toyobo) [1]; Day 0, BSA 50 mg/mL only, listed as of 0.7% Proclin 300): 1.685 and 1.801 and 1.683 and 1.36
Absorbance, solutions 7-11 (creatininase (Toyobo) [1]; Day 0, BSA 50 mg/mL only, listed as of 1.4% Proclin 300): 0.524 and 0.507
Absorbance, solutions 7-11 (creatininase (Toyobo) [1]; Day 4, BSA 5 mg/mL only, listed as of 0.7% Proclin 300): 1.095 and 1.072 and 1.093 and 1.13 and 1.104
Absorbance, solutions 7-11 (creatininase (Toyobo) [1]; Day 4, BSA 5 mg/mL only, listed as of 1.4% Proclin 300): 1 and 0.988 and 0.984 and 1.036 and 1.006
Absorbance, solutions 7-11 (creatininase (Toyobo) [1]; Day 4, BSA 25 mg/mL only, listed as of 0.7% Proclin 300): 0.934 and 0.899 and 0.904 and 0.92 and 0.891
Absorbance, solutions 7-11 (creatininase (Toyobo) [1]; Day 4, BSA 25 mg/mL only, listed as of 1.4% Proclin 300): 0.872 and 0.841 and 0.896 and 0.856
Absorbance, solutions 7-11 (creatininase (Toyobo) [1]; Day 4, BSA 50 mg/mL only, listed as of 0.7% Proclin 300): 0.781 and 0.761 and 0.765 and 0.817 and 0.784
Absorbance, solutions 7-11 (creatininase (Toyobo) [1]; Day 4, BSA 50 mg/mL only, listed as of 1.4% Proclin 300): 0.763 and 0.762 and 0.756 and 0.807
Absorbance, solutions 7-11 (creatininase (Toyobo) [1]; Day 14, BSA 5 mg/mL only, listed as of 0.7% Proclin 300): 1.14 and 1.136 and 1.128 and 1.161 and 1.141
Absorbance, solutions 7-11 (creatininase (Toyobo) [1]; Day 14, BSA 5 mg/mL only, listed as of 1.4% Proclin 300): 1.137 and 1.102 and 1.097 and 1.154 and 1.116
Absorbance, solutions 7-11 (creatininase (Toyobo) [1]; Day 14, BSA 25 mg/mL only, listed as of 0.7% Proclin 300): 0.937 and 0.925 and 0.941
Absorbance, solutions 7-11 (creatininase (Toyobo) [1]; Day 14, BSA 25 mg/mL only, listed as of 1.4% Proclin 300): 0.935 and 0.921 and 0.928 and 0.947 and 0.932
Absorbance, solutions 7-11 (creatininase (Toyobo) [1]; Day 14, BSA 50 mg/mL only, listed as of 1.4% Proclin 300): 0.78 and 0.776 and 0.779 and 0.806 and 0.797
Creatininase Enzyme Absorbance, columns 7-11 (creatininase (Toyobo) [2]; Day 0, 5 mg/mL BSA, no MIT (row of 50 ppm MIT)): 0.787 and 0.823 and 0.825
Creatininase Enzyme Absorbance, columns 7-11 (creatininase (Toyobo) [2]; Day 0, 5 mg/mL BSA, no MIT (row of 100 ppm MIT)): 0.826
Creatininase Enzyme Absorbance, columns 7-11 (creatininase (Toyobo) [2]; Day 0, 25 mg/mL BSA, no MIT (row of 50 ppm MIT)): 0.776 and 0.77 and 0.817 and 0.824
Creatininase Enzyme Absorbance, columns 7-11 (creatininase (Toyobo) [2]; Day 0, 25 mg/mL BSA, no MIT (row of 100 ppm MIT)): 0.775
Creatininase Enzyme Absorbance, columns 7-11 (creatininase (Toyobo) [2]; Day 0, 50 mg/mL BSA, no MIT (row of 50 ppm MIT)): 0.823 and 0.839 and 0.878 and 0.87
Creatininase Enzyme Absorbance, columns 7-11 (creatininase (Toyobo) [2]; Day 0, 50 mg/mL BSA, no MIT (row of 100 ppm MIT)): 0.757
Creatininase Enzyme Absorbance, columns 7-11 (creatininase (Toyobo) [2]; Day 4, 5 mg/mL BSA, no MIT (row of 50 ppm MIT)): 1.028 and 1.018 and 1.013 and 1.041 and 1.02
Creatininase Enzyme Absorbance, columns 7-11 (creatininase (Toyobo) [2]; Day 4, 5 mg/mL BSA, no MIT (row of 100 ppm MIT)): 0.996 and 0.965 and 0.967 and 1.015 and 1.005
Creatininase Enzyme Absorbance, columns 7-11 (creatininase (Toyobo) [2]; Day 4, 25 mg/mL BSA, no MIT (row of 50 ppm MIT)): 0.872 and 0.851 and 0.852 and 0.866 and 0.845
Creatininase Enzyme Absorbance, columns 7-11 (creatininase (Toyobo) [2]; Day 4, 25 mg/mL BSA, no MIT (row of 100 ppm MIT)): 0.837 and 0.819 and 0.821 and 0.853 and 0.842
Creatininase Enzyme Absorbance, columns 7-11 (creatininase (Toyobo) [2]; Day 4, 50 mg/mL BSA, no MIT (row of 50 ppm MIT)): 0.729 and 0.721 and 0.727 and 0.759 and 0.76
Creatininase Enzyme Absorbance, columns 7-11 (creatininase (Toyobo) [2]; Day 4, 50 mg/mL BSA, no MIT (row of 100 ppm MIT)): 0.729 and 0.711 and 0.714 and 0.742 and 0.72
Creatininase Enzyme Absorbance, columns 7-11 (creatininase (Toyobo) [2]; Day 14, 5 mg/mL BSA, no MIT (row of 50 ppm MIT)): 1.098 and 1.137 and 1.087 and 1.119 and 1.145
Creatininase Enzyme Absorbance, columns 7-11 (creatininase (Toyobo) [2]; Day 14, 5 mg/mL BSA, no MIT (row of 100 ppm MIT)): 1.089 and 1.072 and 1.098 and 1.083
Creatininase Enzyme Absorbance, columns 7-11 (creatininase (Toyobo) [2]; Day 14, 25 mg/mL BSA, no MIT (row of 50 ppm MIT)): 0.926 and 0.932 and 0.887 and 0.923 and 0.916
Creatininase Enzyme Absorbance, columns 7-11 (creatininase (Toyobo) [2]; Day 14, 25 mg/mL BSA, no MIT (row of 100 ppm MIT)): 0.961 and 0.95 and 0.904 and 0.939 and 0.946
Creatininase Enzyme Absorbance, columns 7-11 (creatininase (Toyobo) [2]; Day 14, 50 mg/mL BSA, no MIT (row of 50 ppm MIT)): 0.769 and 0.778 and 0.743 and 0.773 and 0.764
Creatininase Enzyme Absorbance, columns 7-11 (creatininase (Toyobo) [2]; Day 14, 50 mg/mL BSA, no MIT (row of 100 ppm MIT)): 0.8 and 0.789 and 0.756 and 0.778 and 0.774
Creatininase Enzyme Absorbance ([3]; Day 0, 50 ppm MIT, 50 mg/mL BSA): 0.779 and 0.748 and 0.755 and 0.766
Creatininase Enzyme Absorbance ([3]; Day 0, 100 ppm MIT, 5 mg/mL BSA): 0.839 and 0.784 and 0.778 and 0.782 and 0.797
Creatininase Enzyme Absorbance ([3]; Day 0, 100 ppm MIT, 25 mg/mL BSA): 0.785 and 0.72 and 0.705 and 0.727 and 0.751
Creatininase Enzyme Absorbance ([3]; Day 0, 100 ppm MIT, 50 mg/mL BSA): 0.749 and 0.669 and 0.673 and 0.678 and 0.704
Creatininase Enzyme Absorbance ([3]; Day 4, 50 ppm MIT, 5 mg/mL BSA): 0.972 and 0.953 and 0.913 and 0.948 and 0.937
Creatininase Enzyme Absorbance ([3]; Day 4, 50 ppm MIT, 25 mg/mL BSA): 0.806 and 0.821 and 0.855
Creatininase Enzyme Absorbance ([3]; Day 4, 50 ppm MIT, 50 mg/mL BSA): 0.659 and 0.673 and 0.665 and 0.672 and 0.658
Creatininase Enzyme Absorbance ([3]; Day 4, 100 ppm MIT, 5 mg/mL BSA): 0.919 and 0.895 and 0.917 and 0.914 and 0.954
Creatininase Enzyme Absorbance ([3]; Day 4, 100 ppm MIT, 25 mg/mL BSA): 0.815 and 0.793 and 0.796 and 0.803 and 0.82
Creatininase Enzyme Absorbance ([3]; Day 4, 100 ppm MIT, 50 mg/mL BSA): 0.709 and 0.7 and 0.675 and 0.691 and 0.702
Creatininase Enzyme Absorbance ([3]; Day 14, 50 ppm MIT, 5 mg/mL BSA): 1.1 and 1.067 and 1.062 and 1.08 and 1.103
Creatininase Enzyme Absorbance ([3]; Day 14, 50 ppm MIT, 25 mg/mL BSA): 0.946 and 0.906 and 0.898 and 0.922 and 0.928
Creatininase Enzyme Absorbance ([3]; Day 14, 50 ppm MIT, 50 mg/mL BSA): 0.739 and 0.723 and 0.714 and 0.722 and 0.751
Creatininase Enzyme Absorbance ([3]; Day 14, 100 ppm MIT, 5 mg/mL BSA): 1.099 and 1.043 and 1.031 and 1.064 and 1.075
Creatininase Enzyme Absorbance ([3]; Day 14, 100 ppm MIT, 25 mg/mL BSA): 0.917 and 0.892 and 0.889 and 0.911
Creatininase Enzyme Absorbance ([3]; Day 14, 100 ppm MIT, 50 mg/mL BSA): 0.755 and 0.744 and 0.718
